Patent publication US9198426B2, “Use of 5 pyridin-4-yl-1,3-thiazoles for controlling phytopathogenic fungi” (Bayer Intellectual Property GmbH, priority 2008, dated 2015)
Some entries share one result that the patent states for a list of compounds.

Columns and labels:
Fusarium proliferatum = assay: Production of fumonisin FB1 by Fusarium proliferatum (microtitre plates); assay type: cell-based; conditions: 50 μM, 5 days, 20° C., HPLC-MS/MS
Fusarium graminearum [1] = assay type: cell-based; conditions: 50 µM
Alternaria solani [2] = assay: Alternaria test (tomato)/protective (Use Example 9); assay type: in vivo; conditions: tomato plants, protective, 500 ppm, evaluation 7 days after inoculation
Pyrenophora teres = Pyrenophora teres test (barley)/protective; assay type: in vivo; conditions: barley plants, protective, 500 ppm, evaluation 7-9 days after inoculation
Fusarium verticillioides = assay: Fumonisin FB1 production by Fusarium verticillioides; assay type: cell-based; conditions: 50 μM, 6 days, 20° C., HPLC-MS/MS
Fusarium graminearum [3] = assay type: cell-based; conditions: 50 µM; remark: listed apart in the source
Phytophthora infestans = assay type: in vivo; conditions: in vivo
Alternaria solani [4] = assay: Alternaria test (tomato)/protective (Use Example 1); assay type: in vivo; conditions: tomato plants, protective, 500 ppm active compound, evaluation 7 days after inoculation
Botrytis cinerea = assay: Botrytis test (bean)/protective; conditions: protective, 250 ppm, evaluation two days after inoculation

SMILES | activity in the inhibition of FB1 production (Fusarium proliferatum) | activity in the inhibition of DON/AcDON production (Fusarium graminearum [1]) | efficacy (Alternaria solani [2]) | efficacy (Pyrenophora teres) | efficacy (inhibition of mycotoxin biosynthesis, fumonisin FB1) (Fusarium verticillioides) | efficacy (inhibition of mycotoxin biosynthesis, DON and acetyl-DON added) (Fusarium graminearum [3]) | efficacy (Phytophthora infestans) | efficacy (Alternaria solani [4]) | efficacy (Botrytis cinerea)
CCc1nc(-c2cccc(C)c2)c(-c2ccncc2)s1 [Ex. 3] | > 70% | > 70% | ≥ 70% | ≥ 70% | ≥ 70% | ≥ 70% | ≥ 70% | ≥ 70% | –
Nc1nc(-c2ccc(F)cc2)c(-c2ccncc2)s1 [compound 6] | > 70% | > 70% | ≥ 70% | ≥ 70% | ≥ 70% | – | ≥ 70% | ≥ 70% | ≥ 70%
